Measurements: the supplement of paper PMC6078165
The reference is the same well before dosing, and untreated signal decays as well.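 Fibroblast labels denote human fibroblasts, mainly primary ones from uterus (C12385, HUF), lung (H6013), bone (Hs27A), adrenal (HADF) and skin (WS1), plus mammary HMF and breast cancer-associated Hs343T. Cancer cells are basal-like or mesenchymal-like triple-negative breast cancer lines. A hit is a response shift exceeding 3x replicate standard deviation. The tissue of the other fibroblasts is not given here.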 Numbered stars: 1 amine (or outer) side, 2 acyl side, 3 side chain; on linkers, the order of the positions; unused ones are H or OH. Bridge positions count the residues as written; N and C are the ends. Square brackets hold non-standard residues; d marks the D form. Peptide text beside a SMILES is read from it. I, II: the chains in the order shown. Actinocin(9to1) = Cc1c2oc3c(C)ccc(C(=O)[*:1])c3nc-2c(C(=O)[*:2])c(N)c1=O; NMeV = CN[C@H](C(=O)O)C(C)C; Sar = CNCC(=O)O

System: Hs578T
Test: relative JC-1 red fluorescence (viability) vs pre-drug, coculture with fibroblast (fraction); higher = more viable cancer cells
Description: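 JC-1 labelled TNBC cells cocultured 1:1 (1,500 cells each) with CellTrace Violet stained primary or stromal fibroblasts in 384-well plates in FluoroBrite medium, treated with one of 42 anticancer drugs at 0.1, 1, 10 or 100 uM. JC-1 red fluorescence (mitochondrial integrity in cancer cells only) was read by plate reader every 8 h for 72 h. Values are normalised to each well's pre-drug value. The stock of one drug was tenfold lower, so its dose labels may be too high.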

Cc1c2oc3c(C)ccc(C(=O)N[C@@H]4C(=O)N[C@H](C(C)C)C(=O)N5CCC[C@H]5C(=O)N(C)CC(=O)N(C)[C@@H](C(C)C)C(=O)O[C@@H]4C)c3nc-2c(C(=O)N[C@@H]2C(=O)N[C@H](C(C)C)C(=O)N3CCC[C@H]3C(=O)N(C)CC(=O)N(C)[C@@H](C(C)C)C(=O)O[C@@H]2C)c(N)c1=O [Dactinomycin] (I: T[dV]P[Sar][NMeV] / II: T[dV]P[Sar][NMeV]; ester I:1-I:C, II:1-II:C; linker I:N-II:N via Actinocin(9to1))
relative JC-1 red fluorescence
Conditions | 8 h | 16 h | 24 h | 32 h | 40 h | 48 h | 56 h | 64 h | 72 h
10 µM | 0.871 | 0.71 | 0.621 | 0.572 | 0.5 | 0.46 | 0.44 | 0.418 | 0.422
100 µM | 0.888 | 0.734 | 0.606 | 0.546 | 0.492 | 0.447 | 0.428 | 0.405 | 0.404

relative JC-1 red fluorescence
Conditions | 8 h | 16 h | 24 h | 32 h | 40 h | 48 h | 56 h | 64 h | 72 h
10 µM, coculture fibroblast: C12385 | 0.7909 | 0.714 | 0.67 | 0.574 | 0.504 | 0.467 | 0.436 | 0.433 | 0.435
10 µM, coculture fibroblast: H6013 | 0.825 | 0.756 | 0.684 | 0.629 | 0.579 | 0.567 | 0.56 | 0.555 | 0.541
10 µM, coculture fibroblast: H6019 | 0.8046 | 0.735 | 0.714 | 0.589 | 0.543 | 0.5266 | 0.498 | 0.498 | 0.485
10 µM, coculture fibroblast: H6076 | 0.9041 | 0.7647 | 0.672 | 0.648 | 0.611 | 0.5808 | 0.544 | 0.537 | 0.529
10 µM, coculture fibroblast: H6231 | 0.857 | 0.7487 | 0.724 | 0.694 | 0.647 | 0.622 | 0.592 | 0.586 | 0.584
10 µM, coculture fibroblast: HADF | 0.88 | 0.828 | 0.749 | 0.6631 | 0.618 | 0.605 | 0.579 | 0.574 | 0.546
10 µM, coculture fibroblast: HCFa | 0.83 | 0.748 | 0.695 | 0.637 | 0.581 | 0.571 | 0.563 | 0.555 | 0.535
10 µM, coculture fibroblast: HCPF | 0.9186 | 0.822 | 0.759 | 0.7217 | 0.661 | 0.633 | 0.603 | 0.567 | 0.551
10 µM, coculture fibroblast: HHSteC | 0.85736 | 0.795 | 0.7484 | 0.671 | 0.628 | 0.607 | 0.591 | 0.57 | 0.554
10 µM, coculture fibroblast: HMF | 0.877 | 0.786 | 0.741 | 0.7 | 0.628 | 0.592 | 0.557 | 0.526 | 0.515
10 µM, coculture fibroblast: HPFa | 0.837 | 0.764 | 0.726 | 0.695 | 0.693 | 0.67 | 0.648 | 0.649 | 0.638
10 µM, coculture fibroblast: HUF | 0.835 | 0.734 | 0.709 | 0.604 | 0.541 | 0.525 | 0.495 | 0.496 | 0.484
10 µM, coculture fibroblast: Hs27A | 0.835 | 0.767 | 0.697 | 0.6541 | 0.639 | 0.656 | 0.637 | 0.64 | 0.602
10 µM, coculture fibroblast: Hs343T | 0.8937 | 0.742 | 0.666 | 0.625 | 0.547 | 0.525 | 0.511 | 0.506 | 0.509
10 µM, coculture fibroblast: WS1 | 0.8218 | 0.7017 | 0.66 | 0.557 | 0.488 | 0.468 | 0.435 | 0.432 | 0.43
100 µM, coculture fibroblast: C12385 | 0.756 | 0.691 | 0.6248 | 0.53 | 0.472 | 0.428 | 0.38 | 0.37 | 0.368
100 µM, coculture fibroblast: H6013 | 0.7832 | 0.728 | 0.656 | 0.608 | 0.535 | 0.497 | 0.47 | 0.446 | 0.419
100 µM, coculture fibroblast: H6019 | 0.684 | 0.5931 | 0.576 | 0.464 | 0.4178 | 0.396 | 0.3645 | 0.366 | 0.353
100 µM, coculture fibroblast: H6076 | 0.8429 | 0.743 | 0.682 | 0.651 | 0.598 | 0.576 | 0.553 | 0.544 | 0.529
100 µM, coculture fibroblast: H6231 | 0.866 | 0.765 | 0.686 | 0.642 | 0.593 | 0.5514 | 0.5113 | 0.495 | 0.48
100 µM, coculture fibroblast: HADF | 0.842 | 0.82 | 0.761 | 0.674 | 0.63212 | 0.619 | 0.589 | 0.579 | 0.539
100 µM, coculture fibroblast: HCFa | 0.818 | 0.784 | 0.722 | 0.684 | 0.64 | 0.642 | 0.629 | 0.624 | 0.57
100 µM, coculture fibroblast: HCPF | 0.856 | 0.764 | 0.698 | 0.668 | 0.606 | 0.584 | 0.561 | 0.521 | 0.485
100 µM, coculture fibroblast: HHSteC | 0.864 | 0.818 | 0.729 | 0.666 | 0.634 | 0.592 | 0.56 | 0.539 | 0.506
100 µM, coculture fibroblast: HMF | 0.823 | 0.732 | 0.66 | 0.645 | 0.5917 | 0.57 | 0.547 | 0.509 | 0.49
100 µM, coculture fibroblast: HPFa | 0.8279 | 0.787 | 0.737 | 0.688 | 0.668 | 0.652 | 0.623 | 0.63 | 0.605
100 µM, coculture fibroblast: HUF | 0.7696 | 0.701 | 0.697 | 0.606 | 0.57 | 0.563 | 0.533 | 0.537 | 0.538
100 µM, coculture fibroblast: Hs27A | 0.857 | 0.79 | 0.739 | 0.687 | 0.587 | 0.555 | 0.498 | 0.478 | 0.425
100 µM, coculture fibroblast: Hs343T | 0.871 | 0.687 | 0.566 | 0.529 | 0.464 | 0.436 | 0.41 | 0.39 | 0.389
100 µM, coculture fibroblast: WS1 | 0.7165 | 0.636 | 0.5739 | 0.469 | 0.4005 | 0.382 | 0.354 | 0.351 | 0.344
